In all, about 360,000 compounds went through this assay and about 7,500 (2.1%) were called active. The inconclusive results got no clear call from the source; some entries with a clear call stand among them for comparison. The call rests on the fitted dose curve; in most records, active means well fitted inhibition curve with a large enough effect; inconclusive means small, poorly fitted or top-dose-only effect, or effect the other way; inactive means flat fitted curve, though single readings scatter. A potency beside an inconclusive call is a rough fit, not a confirmed value.
Experiment: Nrf2 qHTS screen for inhibitors; further: nearly all actives have a fitted effect of over 60% in size
Settings: A549 ARE-Fluc reporter, luciferase luminescence, 18-24 h; activity change, negative = inhibition: at 46 µM (top of the series)
Procedure, shortened: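 A549 ARE_Fluc cells (5000/well, 5% FBS OPTI-MEM) pre-incubated 2 h, then treated with compounds 18-24 h at 37C/5% CO2 in concentration-response. CellTiter-Fluor viability read first; BugLite luciferase luminescence after 15 min at room temperature gives Nrf2 activity.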
On the % scale 0 is the no-effect control and ±100 the full control effect; potency means the concentration at half of the fitted maximal effect.

Structure (SMILES)	Potency	activity change, negative = inhibition
COc1ccc(NC(=O)Nc2cccc([N+](=O)[O-])c2)cc1Cl	inconclusive: 29.1 µM [falling, single point]	–
O=C1C2C3C=CC(C3)C2C(=O)N1CCc1ccccc1 (configuration not stated)	inconclusive: 6.51 µM [activator, partial curve, poor fit]	–
CCc1ccccc1NC(=O)c1nnn(Cc2ccc(Cl)cc2)c1N	inconclusive: 29.1 µM [falling, single point]	–
CC(=O)N1CCC(=NNC(=O)c2cccs2)CC1	inconclusive: 20.6 µM [activator, partial curve, poor fit]	–
O=C(c1cc(-c2ccncc2)nc2ccccc12)N1CCN(c2ccccn2)CC1	–	inactive: 1.11%
CCOC(=O)C1CCN(c2nc(-c3ccccc3)nc3c2oc2ccccc23)CC1	–	inactive: -19.1%
COc1ccc(/C=C/C(=O)Nc2ccc(C)c(S(=O)(=O)N3CCOCC3)c2)cc1	active: 23.1 µM	–
CCOC(=O)C1=C(CN2CCN(c3ccc(OC)cc3)CC2)NC(=O)NC1c1ccc(Cl)cc1 (configuration not stated)	inconclusive: 23.1 µM [falling, single point]	–
CCOc1ccc(NC(=O)C2CCCN(S(=O)(=O)c3c(C)noc3/C=C/N(C)C)C2)cc1 (configuration not stated)	–	inactive: 7.11%
CC(C)Cn1c(=O)c2sccc2n2c(CCCC(=O)N3CCN(c4ccc(F)cc4)CC3)nnc12	inconclusive: 29.1 µM [activator, single point]	–
Fc1ccc2[nH]c(-c3cccs3)cc2c1	inconclusive: 16.4 µM [activator, partial curve, poor fit]	–
O=C(NCc1cccnc1)NC1(C(F)(F)F)Oc2ccccc2O1	inconclusive: 6.51 µM [activator, partial curve, poor fit]	–
CC(C)C[C@@H](CN1CCCC1CN1C(=S)NC[C@@H]1Cc1ccc(O)cc1)N1C[C@H](Cc2ccccc2)N(CCc2ccccc2)C1=S (some centres not stated)	inconclusive: 20.6 µM [falling, single point]	–
O=C(N/N=C/c1ccc(-n2ccnc2)cc1)c1cccs1	inconclusive: 3.26 µM [activator, single point]	–
COc1ccccc1-c1cnnc(N/N=C/c2ccc(-c3cccc(Br)c3)o2)n1	inconclusive: 2.91 µM [falling, full curve, poor fit]	–
CC(=O)N1CCCc2cc(S(=O)(=O)NC(C(=O)NC3CCCCC3)C(C)C)ccc21 (configuration not stated)	–	inactive: 0.994%
CCOC(=O)c1cc2c(ccn2-c2ccc(F)cc2)n1CC(=O)N(CC)CC	inconclusive: 29.1 µM [falling, single point]	–
O=C1C2C(c3ccccc3)=NN(c3ccccc3)C2C(=O)N1c1ccccc1 (configuration not stated)	–	inactive: 1.42%
Cc1cc(C)cc(NC(=O)C(OC(=O)c2ccc(O)cc2)c2ccccc2)c1 (configuration not stated)	inconclusive: 29.1 µM [falling, single point]	–
c1ccc(-c2n[nH]c(-c3ccccn3)n2)cc1	inconclusive: 14.6 µM [activator, partial curve, poor fit]	–
Cc1ccc2nc(/C(C#N)=C\c3cc(C)n(-c4cccc([N+](=O)[O-])c4)c3C)[nH]c2c1	inconclusive: 3.66 µM [falling, full curve, poor fit]	–

Part of the list above, with bars between the fields.
Structure (SMILES) | Potency | activity change, negative = inhibition
COc1ccc(NC(=O)Nc2cccc([N+](=O)[O-])c2)cc1Cl | inconclusive: 29.1 µM [falling, single point] | –
CCc1ccccc1NC(=O)c1nnn(Cc2ccc(Cl)cc2)c1N | inconclusive: 29.1 µM [falling, single point] | –
CC(=O)N1CCC(=NNC(=O)c2cccs2)CC1 | inconclusive: 20.6 µM [activator, partial curve, poor fit] | –
O=C(c1cc(-c2ccncc2)nc2ccccc12)N1CCN(c2ccccn2)CC1 | – | inactive: 1.11%
CCOC(=O)C1CCN(c2nc(-c3ccccc3)nc3c2oc2ccccc23)CC1 | – | inactive: -19.1%
CCOC(=O)C1=C(CN2CCN(c3ccc(OC)cc3)CC2)NC(=O)NC1c1ccc(Cl)cc1 (configuration not stated) | inconclusive: 23.1 µM [falling, single point] | –
CCOc1ccc(NC(=O)C2CCCN(S(=O)(=O)c3c(C)noc3/C=C/N(C)C)C2)cc1 (configuration not stated) | – | inactive: 7.11%
Fc1ccc2[nH]c(-c3cccs3)cc2c1 | inconclusive: 16.4 µM [activator, partial curve, poor fit] | –
O=C(NCc1cccnc1)NC1(C(F)(F)F)Oc2ccccc2O1 | inconclusive: 6.51 µM [activator, partial curve, poor fit] | –
CC(C)C[C@@H](CN1CCCC1CN1C(=S)NC[C@@H]1Cc1ccc(O)cc1)N1C[C@H](Cc2ccccc2)N(CCc2ccccc2)C1=S (some centres not stated) | inconclusive: 20.6 µM [falling, single point] | –
COc1ccccc1-c1cnnc(N/N=C/c2ccc(-c3cccc(Br)c3)o2)n1 | inconclusive: 2.91 µM [falling, full curve, poor fit] | –
CCOC(=O)c1cc2c(ccn2-c2ccc(F)cc2)n1CC(=O)N(CC)CC | inconclusive: 29.1 µM [falling, single point] | –
Cc1ccc2nc(/C(C#N)=C\c3cc(C)n(-c4cccc([N+](=O)[O-])c4)c3C)[nH]c2c1 | inconclusive: 3.66 µM [falling, full curve, poor fit] | –

(list continues)

Structure (SMILES)	Potency	activity change, negative = inhibition
CCOC(=O)c1cc(-c2cccs2)nc2c1c(C)nn2-c1ccccn1	active: 23.1 µM	–
CCOc1ccccc1C1CC(=O)Nc2cc(OC)c(OC)cc21 (configuration not stated)	inconclusive: 0.366 µM [falling, partial curve, poor fit]	–
CC(C)c1ccc2[nH]c(O)c(N=NC(=O)c3cccc(S(=O)(=O)Nc4ccccc4Cl)c3)c2c1	inconclusive: 2.59 µM [activator, single point]	–
Cc1cc(N/C=C/C(=O)c2cccs2)ccc1F	inconclusive: 7.31 µM [activator, partial curve]	–
C=CCOC(=O)C1=C(C)NC(C)=C(C(=O)OCC=C)C1c1ccco1	inconclusive: 16.4 µM [falling, partial curve, poor fit]	–
COc1ccc2nc(N3CCCCC3)c(C#N)cc2c1	inconclusive: 16.4 µM [activator, partial curve, poor fit]	–
COc1ccccc1N1CCN(CC(=O)Nc2ccc(C)c(F)c2)CC1	inconclusive: 18.4 µM [falling, partial curve]	–
Cc1c(C(=O)NC2CCCCC2)oc2ccc(F)cc12	inconclusive: 29.1 µM [activator, single point]	–
COc1cc(OC)c(-c2nn3c(-c4ccco4)nnc3s2)cc1OC	–	inactive: -5.03%
CCn1c2ccccc2c2cc(NC(=O)COC(=O)c3cc(OC)c(OC)cc3OC)ccc21	active: 16.4 µM	–
Fc1ccc(Nc2nc(-c3ccncc3)cs2)cc1	inconclusive: 25.9 µM [activator, single point]	–
O=C(CSc1nnc(-c2ccccc2F)o1)Nc1cccc(C(F)(F)F)c1	–	inactive: 9.58%
N/C(=N\OC(=O)c1ccccc1)c1ccn[nH]1	inconclusive: 1.46 µM [activator, full curve, poor fit]	–
Cc1nn(Cc2ccccc2)c(C)c1NC(=O)c1noc2c1CCc1ccccc1-2	inconclusive: 16.4 µM [falling, single point]	–
COc1ccc(CCNC(=O)c2ccccc2NC(=O)c2ccco2)cc1OC	–	inactive: -17.2%
COCCN(Cc1ccccc1)C(=O)c1cc(-c2ccc(OC)c(OC)c2)nc2ccccc12	active: 18.4 µM	–
COc1ccccc1/C=C1\C(=O)Nc2ccccc21	inconclusive: 18.4 µM [falling, single point]	–
CCOC(=O)C(=CNc1cc(OC)ccc1-n1cccc1)C(=O)OCC	inconclusive: 20.6 µM [falling, partial curve, poor fit]	–
Cc1ccc(-c2nnn(CC(=O)N(Cc3cccs3)C(C(=O)NC(C)(C)C)c3ccco3)n2)o1 (configuration not stated)	inconclusive: 16.4 µM [falling, partial curve, poor fit]	–
CC12CCC(=O)N1C(C(=O)Nc1nnc(SCc3ccccc3)s1)CS2 (configuration not stated)	inconclusive: 29.1 µM [falling, single point]	–
CN(Cc1ccccc1)C(=O)c1ccc(NC(=O)Cc2ccc(NC(=O)C3CCCN(C(=O)C4CCCC4)C3)cc2)cc1 (configuration not stated)	inconclusive: 29.1 µM [falling, single point]	–
